{
  "source": "PubChem BioAssay AID276",
  "about": "(DTP/NCI, 2004)",
  "test_system": "B6C3F1 mice, Lewis lung carcinoma iv, survival T/C",
  "test": "NCI In Vivo Anticancer Drug Screen. Data for tumor model Lewis Lung Carcinoma (intravenous) in B6C3F1 mice",
  "conditions": "T/C endpoint: median survival time, schedule: Q01DX009 (ip), higher T/C = longer survival",
  "experimental": "The antitumor activity of compounds was measured in mice bearing transplantable tumors. Survival or tumor size were measured and the results are expressed as the measurement made in the treated group (T) divided by the measurement made in the vehicle treated control group (C). The tumor model used in this assay is Lewis Lung Carcinoma (intravenous) in B6C3F1 mice",
  "key": {"[1]": {"conditions": "dose: 12.5 mg/kg/injection, vehicle: saline"}, "[2]": {"conditions": "dose: 25.0 mg/kg/injection, vehicle: saline"}, "[3]": {"conditions": "dose: 50.0 mg/kg/injection, vehicle: saline"}, "[4]": {"conditions": "dose: 100.0 mg/kg/injection, vehicle: saline"}, "[5]": {"conditions": "dose: 200.0 mg/kg/injection, vehicle: saline"}, "[6]": {"conditions": "dose: 400.0 mg/kg/injection, vehicle: saline"}},
  "note": "The list does not hold the whole screen: it gathers some chemical classes. Not every dose and run of a compound is shown. T/C gives the treated animals as a percentage of the vehicle group. Some entries give survivors of the animals treated and no T/C: the source files T/C as zero there, which appears to mark a toxic dose or a test without result, not a measured value. Some doses without a T/C left all or most animals alive at the check, yet need not have been tolerated: the source hardly ever lists a survival T/C far under the control, and the zero likely stands for such cases as well. Counts of survivors are from the toxicity check (mostly the fifth day) where no day follows; animals may have died later. Schedule codes are those of the source, read here as Q, the interval in days (D) or hours (H), X, the number of doses. Some complexes appear as separate parts, the way the source draws them; their charges need not add up. For survival time, the PubChem record calls one and a half times the control and up active, and a quarter to a half above the control has no call in these data; cut-offs in other NCI protocols can differ. Some T/C values are followed by the survivors on the day toxicity was checked, most often the fifth; where neither a count nor a note follows, no animal had died by that day.",
  "data": [
    {"smiles": "CC1(C)CN1P(=O)(Nc1ncccn1)N1CC1(C)C", "note": "(centres undefined)", "values": [
      {"measurement": "T/C", "setting": "[1]", "value": "101 % of control"},
      {"measurement": "T/C", "setting": "[2]", "value": "101 % of control"},
      {"measurement": "T/C", "setting": "[3]", "value": "110 % of control"},
      {"measurement": "T/C", "setting": "[4]", "value": "105 % of control"},
      {"measurement": "survivor count", "setting": "[5]", "value": "10 of 10"},
      {"measurement": "survivor count", "setting": "[6]", "value": "9 of 10"}
    ]},
    {"smiles": "Cc1ccc(Sc2ccc([N+](=O)[O-])cc2[N+](=O)[O-])c([N+](=O)[O-])c1", "values": [
      {"measurement": "T/C", "setting": "[1]", "value": "100 % of control"},
      {"measurement": "T/C", "setting": "[2]", "value": "102 % of control"},
      {"measurement": "T/C", "setting": "[3]", "value": "101 % of control"},
      {"measurement": "T/C", "setting": "[4]", "value": "98 % of control"},
      {"measurement": "T/C", "setting": "[5]", "value": "101 % of control"},
      {"measurement": "T/C", "setting": "[6]", "value": "101 % of control"}
    ]},
    {"smiles": "[Au].[C-]#N.[C-]#N", "values": [
      {"measurement": "T/C", "setting": "dose: 0.62 mg/kg/injection, vehicle: saline", "value": "96 % of control"},
      {"measurement": "T/C", "setting": "dose: 1.25 mg/kg/injection, vehicle: saline", "value": "92 % of control"},
      {"measurement": "T/C", "setting": "dose: 2.5 mg/kg/injection, vehicle: saline", "value": "114 % of control"},
      {"measurement": "T/C", "setting": "dose: 5.0 mg/kg/injection, vehicle: saline", "value": "97 % of control"},
      {"measurement": "T/C", "setting": "dose: 10.0 mg/kg/injection, vehicle: saline", "value": "105 % of control"},
      {"measurement": "survivor count", "setting": "dose: 20.0 mg/kg/injection, vehicle: saline", "value": "0 of 10"}
    ]},
    {"smiles": "ICCN(CCI)c1cccc2ccccc12", "values": [
      {"measurement": "T/C", "setting": "dose: 3.12 mg/kg/injection, vehicle: Klucel (hydroxypropylcellulose) (HPC)", "value": "111 % of control"},
      {"measurement": "T/C", "setting": "dose: 6.25 mg/kg/injection, vehicle: Klucel (hydroxypropylcellulose) (HPC)", "value": "114 % of control [9 of 10 alive]"},
      {"measurement": "survivor count", "setting": "dose: 12.5 mg/kg/injection, vehicle: Klucel (hydroxypropylcellulose) (HPC)", "value": "10 of 10"},
      {"measurement": "survivor count", "setting": "dose: 25.0 mg/kg/injection, vehicle: Klucel (hydroxypropylcellulose) (HPC)", "value": "10 of 10"},
      {"measurement": "survivor count", "setting": "dose: 50.0 mg/kg/injection, vehicle: Klucel (hydroxypropylcellulose) (HPC)", "value": "5 of 10"},
      {"measurement": "survivor count", "setting": "dose: 100.0 mg/kg/injection, vehicle: Klucel (hydroxypropylcellulose) (HPC)", "value": "0 of 10"}
    ]}
  ]
}
